Test results published in publication PMC7682018.
Results are given in words; binding and its absence hold for the method and conditions named. In cells and extracts the contact can be indirect. Some binding calls cover weakened binding; strength is not graded here.

Protein sequences, listed by entry. Tags and fused reporters are not part of them. Lines headed by an entry give the natural chain unless they say otherwise; changes in a name come on top. Residues count along the entry.
UniProt P07766, residues 23-207: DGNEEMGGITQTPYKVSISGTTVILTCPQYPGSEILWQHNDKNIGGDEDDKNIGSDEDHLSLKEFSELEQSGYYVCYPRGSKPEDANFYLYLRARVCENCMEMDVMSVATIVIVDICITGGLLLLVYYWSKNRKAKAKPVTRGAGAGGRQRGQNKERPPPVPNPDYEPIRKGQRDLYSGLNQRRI
UniProt P06239: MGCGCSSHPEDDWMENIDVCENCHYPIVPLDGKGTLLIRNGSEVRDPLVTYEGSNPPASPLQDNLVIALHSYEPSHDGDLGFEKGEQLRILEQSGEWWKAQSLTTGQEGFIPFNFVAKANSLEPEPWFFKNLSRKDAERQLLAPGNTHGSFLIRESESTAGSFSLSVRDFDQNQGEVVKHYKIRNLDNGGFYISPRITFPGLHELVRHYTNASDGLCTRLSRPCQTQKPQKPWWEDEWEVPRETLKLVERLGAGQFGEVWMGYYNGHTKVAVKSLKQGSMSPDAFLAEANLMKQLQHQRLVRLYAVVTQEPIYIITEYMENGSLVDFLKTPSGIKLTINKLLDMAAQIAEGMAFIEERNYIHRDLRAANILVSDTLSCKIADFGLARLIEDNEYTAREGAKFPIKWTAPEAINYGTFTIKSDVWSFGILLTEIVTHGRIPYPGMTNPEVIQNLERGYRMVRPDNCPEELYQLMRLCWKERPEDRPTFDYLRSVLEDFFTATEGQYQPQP
UniProt P06240: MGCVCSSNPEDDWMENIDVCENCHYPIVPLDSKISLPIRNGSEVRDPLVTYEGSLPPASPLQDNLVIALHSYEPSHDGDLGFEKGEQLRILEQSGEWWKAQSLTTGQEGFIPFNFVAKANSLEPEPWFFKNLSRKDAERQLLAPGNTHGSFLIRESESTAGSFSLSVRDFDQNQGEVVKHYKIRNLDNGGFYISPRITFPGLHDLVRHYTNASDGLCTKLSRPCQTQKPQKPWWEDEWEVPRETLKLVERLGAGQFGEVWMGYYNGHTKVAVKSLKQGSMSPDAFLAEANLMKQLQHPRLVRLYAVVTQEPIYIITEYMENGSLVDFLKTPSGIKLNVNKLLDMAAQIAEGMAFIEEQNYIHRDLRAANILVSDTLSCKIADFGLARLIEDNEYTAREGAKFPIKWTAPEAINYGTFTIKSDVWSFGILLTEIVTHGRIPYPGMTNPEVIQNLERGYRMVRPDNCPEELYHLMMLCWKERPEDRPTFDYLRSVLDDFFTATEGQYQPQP

Experiments:
[1] = target: CD3ε chain of the TCR/CD3 complex (human, Jurkat) (human (endogenous in Jurkat)) (UniProt P07766); assay: proximity ligation; in situ PLA (Duolink) between CD3ε and Lck in fixed, permeabilised J.Lck cells stably expressing Lck^wt or Lck^Y192E; cells unstimulated, stimulated with TCR antibody C305 or with 1 mM pervanadate for 5 min at 37 °C; signal means a distance smaller than 80 nm
[2] = target: T1, CD45 protein tyrosine phosphatase (mouse) (mouse (endogenous in thymocytes)) (UniProt P06800); assay: co-IP; CD45 immunoprecipitated overnight at 4 °C from thymocyte lysates (1% Brij 58, 150 mM NaCl, 150 mM Tris-HCl) in 96-well plates coated with CD45 antibody 30-F11; associated Lck detected with an Lck antibody and alkaline-phosphatase-coupled anti-mouse antibody in a plate reader (ELISA read-out), normalised to Lck in the input
T1 sequence: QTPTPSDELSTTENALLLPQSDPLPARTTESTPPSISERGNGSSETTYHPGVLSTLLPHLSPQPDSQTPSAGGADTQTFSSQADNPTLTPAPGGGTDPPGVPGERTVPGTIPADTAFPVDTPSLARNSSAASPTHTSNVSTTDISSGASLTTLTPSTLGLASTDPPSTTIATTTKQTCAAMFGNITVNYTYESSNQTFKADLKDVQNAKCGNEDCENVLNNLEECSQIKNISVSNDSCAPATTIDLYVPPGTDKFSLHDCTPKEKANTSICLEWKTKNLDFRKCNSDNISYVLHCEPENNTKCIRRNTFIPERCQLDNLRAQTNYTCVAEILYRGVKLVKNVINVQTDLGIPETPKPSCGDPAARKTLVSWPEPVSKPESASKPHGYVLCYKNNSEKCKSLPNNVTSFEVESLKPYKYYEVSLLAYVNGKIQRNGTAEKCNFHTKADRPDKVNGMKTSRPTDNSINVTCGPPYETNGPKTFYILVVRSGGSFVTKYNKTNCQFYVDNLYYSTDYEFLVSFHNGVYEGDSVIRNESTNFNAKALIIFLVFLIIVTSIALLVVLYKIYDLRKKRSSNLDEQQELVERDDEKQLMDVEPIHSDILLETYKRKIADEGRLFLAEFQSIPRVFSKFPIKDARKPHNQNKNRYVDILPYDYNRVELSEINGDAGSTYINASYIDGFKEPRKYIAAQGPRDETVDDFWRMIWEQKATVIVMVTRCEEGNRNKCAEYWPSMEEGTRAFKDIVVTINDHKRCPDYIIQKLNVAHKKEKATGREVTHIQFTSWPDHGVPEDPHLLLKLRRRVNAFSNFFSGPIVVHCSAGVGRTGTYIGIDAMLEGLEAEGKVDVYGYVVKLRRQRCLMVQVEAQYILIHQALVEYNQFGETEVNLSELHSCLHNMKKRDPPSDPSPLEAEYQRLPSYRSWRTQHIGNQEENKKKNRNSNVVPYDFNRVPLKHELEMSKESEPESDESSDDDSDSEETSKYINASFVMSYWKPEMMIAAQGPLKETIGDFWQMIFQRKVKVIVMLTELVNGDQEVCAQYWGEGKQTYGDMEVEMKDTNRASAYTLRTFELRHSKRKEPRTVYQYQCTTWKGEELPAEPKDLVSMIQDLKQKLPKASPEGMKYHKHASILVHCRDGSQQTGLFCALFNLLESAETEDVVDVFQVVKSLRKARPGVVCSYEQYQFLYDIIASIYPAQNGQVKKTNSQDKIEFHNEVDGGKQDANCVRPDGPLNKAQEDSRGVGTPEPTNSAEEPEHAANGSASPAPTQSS

Row | Substance | binding [1] | binding [2]
1 | p56Lck Y192E, re-expressed in J.Lck cells (from UniProt P06239 1-509) (enzyme) | binds | –
2 | p56Lck Y192E, phosphomimetic knock-in mutant (mouse) (from UniProt P06240 1-509) (enzyme) | – | binds
3 | p56Lck, wild type (mouse) (from UniProt P06240 1-509) (enzyme) | – | binds
4 | p56Lck, wild type, re-expressed in J.Lck cells (from UniProt P06239 1-509) (enzyme) | binds | –
